# Experimental data reported in EP4706655A1, “PREVENTIVE OR THERAPEUTIC AGENT FOR NEURODEGENERATIVE DISEASE” (Medilabo RFP, Inc., priority 2023, dated 2024).
# At least one compound was matched to its structure with a doubt left.
# What was measured:
# [1] = tested on: FTD/ALS model mice; test: Morris water maze test (Test Example 1); format: in vivo; conditions: 4.5- to 5-month-old Tg mice; nasal, 0.1 mg/day for 1 month
# [2] = tested on: FTD/ALS model mice; test: Double staining for RNA foci and DPR / TDP-43 inclusions (Test Example 1); format: in vivo; conditions: PFC and MC; nasal, 0.1 mg/day for 1 month
# [3] = tested on: FTD/ALS model mice; test: Immunohistochemical analysis of synaptophysin, NeuN and Iba1 (Test Example 1); format: in vivo; conditions: nasal, 0.1 mg/day for 1 month
# [4] = tested on: Sense (GGGGCC)4 oligonucleotides; test: Gel shift assay for G-quadruplex; format: biochemical; conditions: in vitro; 1 mM of rifampicin, 100 mM of KCl, 5 µM of DNA
# [5] = tested on: PKR; test: Immunohistochemical studies of phosphorylated PKR (Test Example 1); format: in vivo, mice; conditions: PFC and MC; nasal, 0.1 mg/day for 1 month
# [6] = tested on: FTD/ALS model mice; test: Morris water maze test (Test Example 2); format: in vivo; conditions: 7- to 8-month-old mice; nasal, single agent 0.04 mg/day, 1 month
# Description: FVB/NJ-Tg(C9orf72)500Lpwr/J mice (FTD/ALS model mice) were purchased from The Jackson Laboratory (Bar Harbor, ME, USA). The mouse strain was generated as a model for the C9orf72-associated FTD/ALS expressing the human C9orf72 gene with about 500 hexanucleotide ([…]) repeats using a bacterial artificial chromosome (BAC) vector. Transgenic (Tg) mice were crossed with wild-type FVB/NJc1 mice, and the transgene was maintained as a heterozygote at our animal facility. […] Louis, MO) and trans-resveratrol (Sigma-Aldrich) were dissolved in 0.5% low-viscosity CMC (Sigma-Aldrich) at 4 mg/mL. […] Age-matched non-Tg […] mates received only CMC. After administration for one month, the cognitive function of the mice was assessed in the Morris water maze test as described above.
# [7] = tested on: PKR; test: Immunohistochemical analysis of phospho-PKR (Thr446) (Test Example 2); format: in vivo, mice; conditions: prefrontal cortex; nasal, single agent 0.04 mg/day, 1 month
# Experimental: Age-matched non-Tg rat mates received only CMC.
# After the behavioral test, each group was divided into two groups: one for immunohistochemical analysis and the other for future biochemical analysis. Immunohistochemical staining was performed as described above. For staining of double-stranded RNA-dependent protein kinase (PKR), phosphorylated TDP-43, synaptophysin, sections were boiled in 10 mM citrate buffer solution (pH6) for 30 min to expose the antigens. The sections were blocked overnight with 10% calf serum, and then the resultant sections were stained with antibodies for DNA/RNA G-quadruplex (BG4; Absolute antibody, Cleveland, UK), phospho-PKR (Thr446) (MilliporeSigma, Burlington, MA, USA), poly-GA, poly-GP (Cosmo Bio Co., Ltd., Tokyo, Japan), pSer409/410-TDP-43 (Cosmo Bio Co., Ltd.), and synaptophysin (SVP-38; Sigma-Aldrich, St. Luis, MO, USA). Only synaptophysin was stained with a biotin-labeled secondary antibody (Vector Laboratories, Burlingame, CA, USA), a horseradish peroxidase (HRP) -labeled avidin-biotin complex (Vector Laboratories), HRP substrate, diaminobenzidine (DAB), or an FITC-labeled secondary antibody (The Jackson Laboratory). […] Neuropathologies were evaluated by measuring the staining intensity or area or by counting positive puncta or cells in a constant area in each photograph using NIH ImageJ software.
structure (smiles),measurement,setting,value
"CO[C@H]1/C=C/O[C@@]2(C)Oc3c(C)c(O)c4c(O)c(c(/C=N/N5CCN(C)CC5)c(O)c4c3C2=O)NC(=O)/C(C)=C\C=C\[C@H](C)[C@H](O)[C@@H](C)[C@@H](O)[C@@H](C)[C@H](OC(C)=O)[C@@H]1C [rifampicin, 3-(4-Methylpiperazinyliminomethyl)rifamycin SV]",memory performance of Tg mice (water maze test),[1],significantly improved the memory performance of Tg mice to a level similar to non-Tg littermates
same,formation of DPR cytoplasmic inclusions (DPRs and p62),[2],significantly attenuated
same,formation of RNA foci (G-quadruplex and hnRNP H),[2],significantly attenuated
same,formation of TDP-43 cytoplasmic inclusions (pTDP-43 and F11G3),[2],significantly attenuated
same,microglial activation in the PFC and MC (Iba1),[3],significantly suppressed
same,neuronal loss in the PFC (NeuN),[3],significantly suppressed
same,synaptic loss in hippocampal mossy fibers (synaptophysin),[3],significantly suppressed
same,G-quadruplex formation by synthetic (GGGGCC)4 oligonucleotides,[4],failed to inhibit
same,levels of phosphorylated PKR,[5],significantly attenuated
same,cognitive function of FTD/ALS model mice,[6],"improved the cognitive function in the mice, but the effect was incomplete and not significant"
same,levels of phosphorylated PKR,[7],significantly reduced
